Measurements published in patent publication US20150374692A1.
These are yes or no findings as the source states them, for the method shown. In cells and extracts the contact can be indirect. Some results given as binding are weak or reduced against the parent protein; the word gives no strength.

By UniProt entry, the sequences of proteins in these tests, tags left out. Where a name states a change or a piece, a line headed by the entry shows the natural chain unless it says otherwise.
UniProt P16070: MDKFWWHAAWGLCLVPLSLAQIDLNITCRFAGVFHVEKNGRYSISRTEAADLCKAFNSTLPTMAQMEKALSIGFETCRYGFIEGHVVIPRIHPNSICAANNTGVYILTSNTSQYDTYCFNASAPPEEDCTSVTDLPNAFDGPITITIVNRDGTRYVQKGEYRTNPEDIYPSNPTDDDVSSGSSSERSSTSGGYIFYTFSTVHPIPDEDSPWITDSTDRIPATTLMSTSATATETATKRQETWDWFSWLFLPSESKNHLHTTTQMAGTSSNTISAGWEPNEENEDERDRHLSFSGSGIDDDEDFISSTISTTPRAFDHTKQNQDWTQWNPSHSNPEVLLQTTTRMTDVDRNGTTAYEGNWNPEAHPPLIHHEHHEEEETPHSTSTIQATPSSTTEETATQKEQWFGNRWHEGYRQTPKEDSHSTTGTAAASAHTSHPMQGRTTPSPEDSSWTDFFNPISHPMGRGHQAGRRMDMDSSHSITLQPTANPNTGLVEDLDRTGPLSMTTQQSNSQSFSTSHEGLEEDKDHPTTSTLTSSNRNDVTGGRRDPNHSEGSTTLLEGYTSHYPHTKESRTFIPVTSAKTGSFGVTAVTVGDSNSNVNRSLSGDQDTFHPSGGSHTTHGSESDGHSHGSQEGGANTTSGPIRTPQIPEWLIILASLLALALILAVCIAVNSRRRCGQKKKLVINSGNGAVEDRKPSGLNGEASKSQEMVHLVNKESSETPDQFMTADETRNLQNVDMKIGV

What was measured:
[1] = target: human EGFR (Epidermal Growth Factor Receptor) (human) (UniProt P00533); experiment: co-immunoprecipitation (IP EGFR, WB CD44) from 468 cell extract
[2] = target: human EGFR (Epidermal Growth Factor Receptor) (human) (UniProt P00533); experiment: co-immunoprecipitation (IP EGFR, WB CD44) from 468 cell extract, FIG. 4H
[3] = target: human EGFR (Epidermal Growth Factor Receptor) (human) (UniProt P00533); experiment: co-immunoprecipitation (IP EGFR, WB CD44) from MDA-MB-231 cell extract, FIG. 12C

Measured: binding

human CD44 (from UniProt P16070 21-742) (receptor)
binds: all assays above
